From the supplement of paper PMC4683952
The list shows a part of the results. No stated cut-off is given here; in the data, active = 2 or more and inactive = the rest. This data set is noisy: repeats of one test often differ as much as different tests do.

tested on: Lgr5 (MarsCy1-Lgr5-EGFP, U2OS); assay: cell-surface Lgr5 expression (SCi1 fluorescence, background-subtracted) relative to WT DMSO (fold of DMSO control); higher = more Lgr5 at the plasma membrane; details: U2OS MarsCy1-Lgr5-EGFP stable; treatment time: overnight; library: ActiProbe-5K (TimTec); 25 µM

Row | SMILES | cell-surface Lgr5 expression
1 | CCCCCCCn1c(SCC(C)C)nc2c1c(=O)[nH]c(=O)n2C | inactive: 1.6
2 | COC(=O)NNC(=O)C1CCCCC1 | inactive: 0.882
3 | CC(C)(O)/C(=C/C#N)n1cccn1 | inactive: 0.979
4 | COC(=O)C1=C(C(=O)OC)SC2(S1)C(C(=O)OC)=C(C(=O)OC)SC1=C2c2cc(OC)ccc2NC1(C)C | inactive: 1.37
5 | CC1=NN(C(C#N)c2ccc(Cl)c(Cl)c2)C(C)(C)C1 (stereo unspecified) | inactive: 1.21
6 | O=C(CCCC(=O)OCC(F)(F)C(F)F)NC1CCCCC1 | inactive: 1.13
7 | COC(=O)c1ccc(=O)oc1 | inactive: 1.52
8 | Cc1cc(C)nc(SC/C(N)=N/O)n1 | inactive: 1.02
9 | CC1CC(O)(/C=C/C2(O)CCCCC2)C(C)CN1C (stereo unspecified) | inactive: 1.01
10 | C(/C#N)(C#N)=C/Nc1cc(Cl)ccc1Cl | inactive: 1
11 | NC(=O)c1cc(C2(O)CCCCC2)on1 | inactive: 0.947
12 | CCOCC(O)CSc1nc(C)cc(C)n1 (stereo unspecified) | inactive: 1.04
13 | COc1cc(-c2oc3cc(O)cc(O)c3c(=O)c2O)cc(OC)c1OC | inactive: 0.708
14 | O=C1CSc2nc3ccccc3n21 | inactive: 1.16
15 | CSc1sc(C)cc1/C=N\O | inactive: 1.16
16 | C=COCC[NH2+]Cc1ccc(Cl)s1.[Cl-] | inactive: 1.1
17 | C=CCn1c(S)nnc1C12CC3CC(CC(C3)C1)C2 | inactive: 0.955
18 | Clc1cccc2nnc(-c3ccc(Br)cc3)n12 | inactive: 1.02
19 | CCOC(=O)c1cn2nc(OS(C)(=O)=O)cc2nc1C | inactive: 1.51

As entered above:
cell-surface Lgr5 expression with C(/C#N)(C#N)=C/Nc1cc(Cl)ccc1Cl reads inactive: 1
cell-surface Lgr5 expression with CC1CC(O)(/C=C/C2(O)CCCCC2)C(C)CN1C (stereo unspecified) reads inactive: 1.01
cell-surface Lgr5 expression with CC(C)(O)/C(=C/C#N)n1cccn1 reads inactive: 0.979
cell-surface Lgr5 expression with O=C1CSc2nc3ccccc3n21 reads inactive: 1.16

(further entries)

Row | SMILES | cell-surface Lgr5 expression
20 | CC1CN(C(=O)N2CCOCC2)CC(C)O1 (stereo unspecified) | inactive: 1.13
21 | N#Cc1c(-c2ccccc2)cc(-c2ccccc2)nc1SCc1ccccc1 | inactive: 0.975
22 | CC1CN(C(=O)c2scc3c2OCCO3)CC(C)O1 (stereo unspecified) | inactive: 1.37
23 | N#Cc1c2c(n[nH]c1=O)C(=O)c1ccccc1-2 | inactive: 0.388
24 | Nc1ccc2c(c1)SSc1cc(N)ccc1-2 | inactive: 1.25
25 | N#CC12CC3CC(C1)CC(C#N)(C3)C2 | inactive: 1.16
26 | c1(cc(c(C)c(o1)=O)CC)/C=C(/Cl)Cl | inactive: 1.21
27 | CC1CCc2cc(F)ccc2N1C(=S)NCC1CCCO1 (stereo unspecified) | inactive: 1.35
28 | O=C(NC1=NN(C(=O)Nc2ccccc2)C2(CCCC2)S1)Nc1ccccc1 | inactive: 0.669
29 | O=C(NC1CCCCC1)c1c(O)c2c([nH]c1=O)CCCC2 | inactive: 1.23
30 | CN(C1CCS(=O)(=O)C1)S(=O)(=O)c1ccc(F)cc1 (stereo unspecified) | inactive: 1.11
31 | O=S(=O)(c1ccc(OC(F)(F)F)cc1)N1CCN(c2nsc3ccccc23)CC1 | inactive: 0.903
32 | Cc1cc(S(=O)(=O)NC2CC2)c(C)s1 | inactive: 1.03
33 | CCOC(=O)C1C(=O)NCC2CCCC21 (stereo unspecified) | inactive: 0.924
34 | Clc1cc(/N=C\c2ccc3c(c2)OCO3)ccc1Br | inactive: 1.15
35 | N#Cc1sc2nc(C34CC5CC(CC(C5)C3)C4)ccc2c1N | inactive: 1.24
36 | COc1nc(OCC#N)nc(N2CCOCC2)n1 | inactive: 1.43
37 | O=C(O)c1csc2c1CCCC2 | inactive: 1.06
38 | CC1(C)CC(=O)C2=C(C1)OC(N)=C(C#N)C21CCC2(CC1)OCCO2 | inactive: 1.2

Row | SMILES | cell-surface Lgr5 expression
39 | FC(F)Oc1ccc(/C=C\c2nnc(-c3ccncc3)o2)cc1 | inactive: 1.04
40 | Brc1ccc(-c2noc(Cc3cccs3)n2)o1 | inactive: 1.12
41 | c1csc(-c2nc3cnccn3c2NC2CCCC2)c1 | inactive: 0.956
42 | CCOc1ccc2c(c1)-c1c(ssc1=S)C(C)(C)N2 | inactive: 1.75
43 | Oc1ccc(Br)c(/C=N\c2ccc(-c3ccc(/N=C\c4cc(Br)ccc4O)cc3)cc2)c1 | inactive: 1.03
44 | Brc1ccc2nc(-c3ccccc3)cn2c1 | inactive: 1.41
45 | Brc1ccc(/C=N/Nc2nc(N3CCOCC3)nc(N3CCOCC3)n2)o1 | inactive: 1.11
46 | c1cncc(-c2noc(-c3ccc(-c4nc(-c5cccnc5)no4)cc3)n2)c1 | inactive: 1
47 | COc1cc(Cl)c(OC)cc1N | inactive: 1.28
48 | Nc1c(C(=O)c2ccc(Br)s2)oc2ccc(Br)cc12 | inactive: 1.34
49 | COc1cc(CCC(C)O)c(OC)c2c1OCO2 (stereo unspecified) | inactive: 1.23
50 | Nc1nc(=S)n2c(n1)oc1ccccc12 | inactive: 1.42
51 | Cc1[nH]c2ccccc2c1/C=N/Nc1nc2ccccc2[nH]1 | inactive: 1.04
52 | C=CCNC(=O)n1cc([N+](=O)[O-])cn1 | inactive: 1.15
53 | COC(=O)c1nnc(N)[nH]1 | inactive: 1.25
54 | CC1=CC(c2ccoc2)c2c(oc(N)c(C#N)c2=O)S1 (stereo unspecified) | inactive: 1.26
55 | NS(=O)(=O)c1ccc(NC(=S)Nc2ccc(F)cc2)cc1 | inactive: 0.897
56 | CCC1CC(O)C(C)C(C)S1 (stereo unspecified) | inactive: 1.13
